Measured values published in patent publication US9622986B2 (priority 2012, dated 2017).

Experiment: Evaluation of polymers: solubilization of donepezil base, appearance of solution
Format: physicochemical
Conditions: when polyvinylpyrrolidone is used

With COc1cc2c(cc1OC)C(=O)C(CC1CCN(Cc3ccccc3)CC1)C2 (stereo not shown) [donepezil, 2-[(1-benzyl-4-piperidinyl)methyl]-5,6-dimethoxyindan-1-one] the Dissolution of donepezil was “completely dissolved”.
